Results are given in words; binding and its absence hold for the method and conditions named. Binding seen in cells or lysates may run through a third protein. Some entries that bind do so weakly or less than the wild type.
Tests used:
[1] = biological target: sNASP, endogenous in primary bone marrow-derived macrophages (not stated (endogenous in primary BMDMs)) (UniProt Q99MD9); assay: co-IP; primary BMDMs, before LPS; IP with anti-NASP or anti-CYLD, IB with the indicated antibodies
[2] = biological target: sNASP, endogenous in primary bone marrow-derived macrophages (not stated (endogenous in primary BMDMs)) (UniProt Q99MD9); assay: co-IP; primary BMDMs stimulated with LPS (2 h); IP with anti-NASP or anti-CYLD, IB with the indicated antibodies

The chains behind the UniProt entries cited, without tags or fusion partners. Where a name states a change or a piece, a line headed by the entry shows the natural chain unless it says otherwise. A line that says so, or that is headed by a name, gives the form on record, which may keep a tag or linker.
sNASP, endogenous in primary bone marrow-derived macrophages (not stated (endogenous in primary BMDMs)) (Q99MD9, form named): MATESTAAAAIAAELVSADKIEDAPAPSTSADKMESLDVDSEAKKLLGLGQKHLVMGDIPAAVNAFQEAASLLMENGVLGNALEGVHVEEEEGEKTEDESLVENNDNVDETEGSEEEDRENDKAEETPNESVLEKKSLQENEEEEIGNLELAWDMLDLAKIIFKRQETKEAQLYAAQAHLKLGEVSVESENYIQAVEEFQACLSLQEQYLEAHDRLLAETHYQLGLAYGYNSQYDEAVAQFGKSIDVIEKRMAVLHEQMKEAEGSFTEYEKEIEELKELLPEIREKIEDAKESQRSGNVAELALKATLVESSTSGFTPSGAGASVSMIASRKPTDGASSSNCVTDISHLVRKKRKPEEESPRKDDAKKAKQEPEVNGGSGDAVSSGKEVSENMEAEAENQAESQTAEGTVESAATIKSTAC

B1: CYLD, endogenous in primary bone marrow-derived macrophages (enzyme, UniProt Q80TQ2 1-952)
chain: MSSGLWSQEKVTSPYWEERIFYLLLQECSVTDKQTQKLLKVPKGSIGQYIQDRSVGHSRVPSTKGKKNQIGLKILEQPHAVLFVDEKDVVEINEKFTELLLAITNCEERLSLFRNRLRLSKGLQVDVGSPVKVQLRSGEEKFPGVVRFRGPLLAERTVSGIFFGVELLEEGRGQGFTDGVYQGKQLFQCDEDCGVFVALDKLELIEDDDNGLESDFAGPGDTMQVEPPPLEINSRVSLKVGESTESGTVIFCDVLPGKESLGYFVGVDMDNPIGNWDGRFDGVQLCSFASVESTILLHINDIIPDSVTQERRPPKLAFMSRGVGDKGSSSHNKPKVTGSTSDPGSRNRSELFYTLNGSSVDSQQSKSKNPWYIDEVAEDPAKSLTEMSSDFGHSSPPPQPPSMNSLSSENRFHSLPFSLTKMPNTNGSMAHSPLSLSVQSVMGELNSTPVQESPPLPISSGNAHGLEVGSLAEVKENPPFYGVIRWIGQPPGLSDVLAGLELEDECAGCTDGTFRGTRYFTCALKKALFVKLKSCRPDSRFASLQPVSNQIERCNSLAFGGYLSEVVEENTPPKMEKEGLEIMIGKKKGIQGHYNSCYLDSTLFCLFAFSSALDTVLLRPKEKNDIEYYSETQELLRTEIVNPLRIYGYVCATKIMKLRKILEKVEAASGFTSEEKDPEEFLNILFHDILRVEPLLKIRSAGQKVQDCNFYQIFMEKNEKVGVPTIQQLLEWSFINSNLKFAEAPSCLIIQMPRFGKDFKLFKKIFPSLELNITDLLEDTPRQCRICGGLAMYECRECYDDPDISAGKIKQFCKTCSTQVHLHPRRLNHSYHPVSLPKDLPDWDWRHGCIPCQKMELFAVLCIETSHYVAFVKYGKDDSAWLFFDSMADRDGGQNGFNIPQVTPCPEVGEYLKMSLEDLHSLDSRRIQGCARRLLCDAYMCMYQSPTMSLYK
B1 was tested, and the binding [1] was “binds” and the binding [2] was “no binding (condition: 2 h after LPS stimulation)”.

— article PMC11923351
